According to patent US6506799B1, “Methods of treating cardiovascular diseases, dyslipidemia, dyslipoproteinemia, and hypertension with ether compounds” (Esperion Therapeutics, Inc., priority 1999, dated 2003):
For some of these results: At least one compound was matched to its structure with a doubt left. Some entries share one result that the patent states for a list of compounds. Some compounds share one range, which may span the group rather than tell each member.

Columns and labels:
primary rat hepatocytes = assay: Cytotoxicity: LDH leakage from monolayer hepatocyte cultures; assay type: cell-based; conditions: all concentrations tested, up to 250 μM; 24 hours
[1] = system: chow fed obese female Zucker rats; assay: Experiments B, C, D, E: serum lipids, glucose, insulin, body and liver weight in obese female Zucker rats, 14 days; assay type: in vivo, rat; conditions: Experiment C; for glucose to insulin ratio: all doses
Description: In a number of different experiments, illustrative compounds of the invention and troglitazone were administered daily at various doses to 10-week old chow fed obese female Zucker rats for 14 days in the morning by oral gavage in 1.5% carboxymethylcellulose/0.2% Tween-20 (dosing vehicle). Animals were weighed daily. Animals were allowed free access to rodent chow and water throughout the study. Blood glucose was determined after a 6-hour fast in the afternoon without anesthesia from a tail vein. Serum was also prepared from a blood sample subsequently obtained from the orbital venous plexus (with O2/CO2 anesthesia) prior to and after one week treatment and used lipid and insulin determinations. At two weeks, blood glucose was again determined after a 6-hour fast without anesthesia from a tail vein. Soon thereafter, animals were sacrificed by CO2 inhalation in the evening and cardiac blood serum was collected and assessed for various lipids and insulin. Body weight was determined daily prior to dosing and at the time of euthanasia.

female obese Zucker rats = assay: Experiment A: serum lipids, glucose, non-esterified fatty acids and weight gain in obese female Zucker rats after seven days; assay type: in vivo, rat; conditions: 120 mg/kg, one week
Description: Dosing vehicle, Compound A (86 mg/kg of body weight) or troglitazone (120 mg/kg of body weight) was administered to eight week old female obese Zucker rats daily for seven days in the morning by oral gavage in 1.5% carboxymethylcellulose/0.2% Tween-20. Troglitazone was obtained commercially. Finely crushed tablets were suspended in vehicle for dosing. Orbital blood samples were obtained following a six-hour fast prior to the initial dose and also following the seventh dose.
Blood serum was assayed for total cholesterol and triglycerides (FIG. 5), lipoprotein cholesterol profiles (FIG. 6), VLDL plus LDL cholesterol combined (also referred to as apo B containing lipoprotein cholesterol or non-HDL cholesterol), HDL cholesterol, and the ratio of HDL cholesterol to that of VLDL plus LDL cholesterol (FIG. 7), serum glucose, and non-esterified fatty acids (FIG. 8), and percent weight gain (FIG. 9). […] In particular, Compound A caused a marked elevation in HDL cholesterol after one week of treatment. Using the serum total cholesterol values (FIG. 5A) and the lipoprotein cholesterol distribution (FIG. 6), the amount of cholesterol associated with non-HDL (i.e., VLDL plus LDL) and HDL were determined (FIG. 7). […] In contrast, troglitazone reduced non-HDL and HDL cholesterol by 67% and 4%, respectively.

Compound: CC(C)(CO)CCCCOCCCCC(C)(C)CO [Compound A, 6-(6-hydroxy-5,5-dimethylhexyloxy)-2,2-dimethyl-hexan-1-ol]
- secretion of LDH in the medium, of total LDH (primary rat hepatocytes): 25-30%

Compound: CC(C)(CCCCOCCCCC(C)(C)OP(=O)(O)O)OP(=O)([O-])[O-].[Na+].[Na+] [Compound B, phosphoric acid mono-(1,1-dimethyl-5-(5-methyl-5-phosphonooxy-hexyloxy)-pentyl)ester sodium salt]
- secretion of LDH in the medium, of total LDH (primary rat hepatocytes): 25-30%

Compound: CC(C)(CCCCOCCCCC(C)(C)OP(=O)(OCc1ccccc1)OCc1ccccc1)OP(=O)(OCc1ccccc1)OCc1ccccc1 [Compound C, phosphoric acid dibenzyl ester 5-(5-(bis-benzyloxy-phosphoryloxy)-5-methyl-hexyloxy)-1,1-dimethyl-pentyl ester]
- secretion of LDH in the medium, of total LDH (primary rat hepatocytes): 25-30%

Compound: CC(C)(CCCOCCCC(C)(C)OP(=O)(O)O)OP(=O)([O-])[O-].[Na+].[Na+] [Compound D, phosphoric acid mono-(1,1-dimethyl-4-(4-methyl-4-phosphonooxy-pentyloxy)-butyl)ester sodium salt]
- secretion of LDH in the medium, of total LDH (primary rat hepatocytes): 25-30%

Compound: Cc1c(C)c2c(c(C)c1O)CCC(C)(COc1ccc(CC3SC(=O)NC3=O)cc1)O2 (stereo not shown) [troglitazone, reference compound]
- blood glucose ([1]; 40 mg/kg, fasted): tendency to lower blood glucose
- weight gain ([1]; 120 mg/kg, after one week): increased weight gain after one week at 120 mg/kg
- serum total cholesterol ([1]; 120 mg/kg, after two weeks of treatment): only modestly elevated
- weight gain ([1]; 12, 40 and 120 mg/kg, after two weeks): increased weight gain after two weeks at all treatment doses
- serum insulin levels ([1]; all doses tested (12, 40, 120 mg/kg), two weeks): reduced following two weeks of treatment at all doses tested
- glucose to insulin ratio ([1]; after one week treatment): sustained the glucose to insulin ratio after one week treatment
- glucose to insulin ratio ([1]; after two weeks of treatment): increased this ratio after two weeks of treatment
- reduction of triglycerides ([1]; doses 12, 40, 120 mg/kg, FIG. 10): observed only at doses of 40 and 120 mg/kg
- total serum cholesterol (female obese Zucker rats): reduction
